{"sequences": {"note": "By UniProt entry, the sequences of proteins in these tests, tags left out. Where a name states a change or a piece, a line headed by the entry shows the natural chain unless it says otherwise.", "UniProt Q9UGI8": "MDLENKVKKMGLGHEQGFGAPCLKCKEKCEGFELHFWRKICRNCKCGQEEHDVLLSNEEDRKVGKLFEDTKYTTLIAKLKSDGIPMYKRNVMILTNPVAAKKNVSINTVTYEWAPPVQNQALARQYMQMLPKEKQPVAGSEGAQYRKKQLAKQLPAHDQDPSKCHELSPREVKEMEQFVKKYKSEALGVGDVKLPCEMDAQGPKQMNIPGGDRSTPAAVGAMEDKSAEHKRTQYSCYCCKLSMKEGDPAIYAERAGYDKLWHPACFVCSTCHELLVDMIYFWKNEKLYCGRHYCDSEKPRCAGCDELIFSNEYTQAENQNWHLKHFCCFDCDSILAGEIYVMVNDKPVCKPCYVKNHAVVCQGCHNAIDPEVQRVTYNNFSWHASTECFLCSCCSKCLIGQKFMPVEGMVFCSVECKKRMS", "UniProt Q9NVG8": "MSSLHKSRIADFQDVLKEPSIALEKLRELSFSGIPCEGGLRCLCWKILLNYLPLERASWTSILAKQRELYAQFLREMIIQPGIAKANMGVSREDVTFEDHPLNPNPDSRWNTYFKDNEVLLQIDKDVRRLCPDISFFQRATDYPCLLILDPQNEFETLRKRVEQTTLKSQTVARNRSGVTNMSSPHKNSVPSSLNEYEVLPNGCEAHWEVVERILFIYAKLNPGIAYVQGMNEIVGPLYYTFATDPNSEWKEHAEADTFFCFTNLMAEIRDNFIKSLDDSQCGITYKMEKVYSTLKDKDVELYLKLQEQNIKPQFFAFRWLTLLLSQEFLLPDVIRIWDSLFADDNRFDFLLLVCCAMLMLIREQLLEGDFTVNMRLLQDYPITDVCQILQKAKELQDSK", "UniProt Q9NUQ3": "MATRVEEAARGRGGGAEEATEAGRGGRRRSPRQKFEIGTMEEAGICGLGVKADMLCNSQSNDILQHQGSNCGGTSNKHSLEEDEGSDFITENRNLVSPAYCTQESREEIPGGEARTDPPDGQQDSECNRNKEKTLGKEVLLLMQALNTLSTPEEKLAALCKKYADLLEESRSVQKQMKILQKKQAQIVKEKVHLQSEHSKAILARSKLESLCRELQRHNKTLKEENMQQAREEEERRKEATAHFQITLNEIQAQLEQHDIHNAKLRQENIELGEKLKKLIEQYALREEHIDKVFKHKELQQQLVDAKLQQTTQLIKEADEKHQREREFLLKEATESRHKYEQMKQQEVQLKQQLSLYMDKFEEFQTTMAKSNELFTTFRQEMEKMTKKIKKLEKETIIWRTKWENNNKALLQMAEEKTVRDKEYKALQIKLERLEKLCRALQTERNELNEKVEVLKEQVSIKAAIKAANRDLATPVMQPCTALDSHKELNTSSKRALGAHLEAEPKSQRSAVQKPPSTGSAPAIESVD", "UniProt Q9NZB2": "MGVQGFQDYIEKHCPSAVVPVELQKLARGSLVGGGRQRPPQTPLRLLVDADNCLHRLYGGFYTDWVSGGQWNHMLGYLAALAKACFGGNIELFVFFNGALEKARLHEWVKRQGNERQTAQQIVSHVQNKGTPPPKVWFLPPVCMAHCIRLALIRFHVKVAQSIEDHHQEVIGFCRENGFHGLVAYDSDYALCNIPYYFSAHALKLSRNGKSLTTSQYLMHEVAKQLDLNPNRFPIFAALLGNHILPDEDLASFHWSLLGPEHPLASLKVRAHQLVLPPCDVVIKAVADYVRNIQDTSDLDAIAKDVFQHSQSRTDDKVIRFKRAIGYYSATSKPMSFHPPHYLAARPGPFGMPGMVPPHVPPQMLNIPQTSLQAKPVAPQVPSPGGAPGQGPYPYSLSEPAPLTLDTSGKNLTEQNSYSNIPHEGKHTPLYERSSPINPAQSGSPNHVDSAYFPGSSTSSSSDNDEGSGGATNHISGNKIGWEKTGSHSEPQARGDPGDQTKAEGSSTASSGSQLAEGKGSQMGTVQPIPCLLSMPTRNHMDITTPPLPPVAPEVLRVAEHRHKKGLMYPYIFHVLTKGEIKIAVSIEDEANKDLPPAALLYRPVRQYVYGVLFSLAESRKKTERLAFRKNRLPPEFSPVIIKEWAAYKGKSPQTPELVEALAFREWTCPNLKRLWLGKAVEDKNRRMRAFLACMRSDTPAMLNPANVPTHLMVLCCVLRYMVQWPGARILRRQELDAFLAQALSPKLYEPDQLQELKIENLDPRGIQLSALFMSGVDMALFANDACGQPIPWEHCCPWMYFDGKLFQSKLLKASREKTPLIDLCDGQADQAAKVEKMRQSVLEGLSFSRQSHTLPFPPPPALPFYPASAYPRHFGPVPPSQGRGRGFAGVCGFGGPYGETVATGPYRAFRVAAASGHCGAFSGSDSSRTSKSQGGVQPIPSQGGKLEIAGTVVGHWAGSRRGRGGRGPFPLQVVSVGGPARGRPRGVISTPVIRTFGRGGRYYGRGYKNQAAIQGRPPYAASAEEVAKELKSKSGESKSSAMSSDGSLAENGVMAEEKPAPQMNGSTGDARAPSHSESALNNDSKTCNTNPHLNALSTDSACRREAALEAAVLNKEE", "UniProt Q9UBB4": "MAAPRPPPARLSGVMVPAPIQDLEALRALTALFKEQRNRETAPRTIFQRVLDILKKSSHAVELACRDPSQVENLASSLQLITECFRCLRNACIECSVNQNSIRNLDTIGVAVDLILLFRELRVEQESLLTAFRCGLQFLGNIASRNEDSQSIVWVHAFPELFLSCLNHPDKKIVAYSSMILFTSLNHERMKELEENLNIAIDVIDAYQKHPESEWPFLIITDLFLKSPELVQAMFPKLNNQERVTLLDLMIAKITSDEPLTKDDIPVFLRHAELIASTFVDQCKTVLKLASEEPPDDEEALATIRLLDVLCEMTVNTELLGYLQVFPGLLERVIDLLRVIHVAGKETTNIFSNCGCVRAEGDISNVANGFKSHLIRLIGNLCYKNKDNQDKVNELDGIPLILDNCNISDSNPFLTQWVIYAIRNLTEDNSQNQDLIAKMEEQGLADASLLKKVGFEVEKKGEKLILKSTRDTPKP", "UniProt Q9P2J5": "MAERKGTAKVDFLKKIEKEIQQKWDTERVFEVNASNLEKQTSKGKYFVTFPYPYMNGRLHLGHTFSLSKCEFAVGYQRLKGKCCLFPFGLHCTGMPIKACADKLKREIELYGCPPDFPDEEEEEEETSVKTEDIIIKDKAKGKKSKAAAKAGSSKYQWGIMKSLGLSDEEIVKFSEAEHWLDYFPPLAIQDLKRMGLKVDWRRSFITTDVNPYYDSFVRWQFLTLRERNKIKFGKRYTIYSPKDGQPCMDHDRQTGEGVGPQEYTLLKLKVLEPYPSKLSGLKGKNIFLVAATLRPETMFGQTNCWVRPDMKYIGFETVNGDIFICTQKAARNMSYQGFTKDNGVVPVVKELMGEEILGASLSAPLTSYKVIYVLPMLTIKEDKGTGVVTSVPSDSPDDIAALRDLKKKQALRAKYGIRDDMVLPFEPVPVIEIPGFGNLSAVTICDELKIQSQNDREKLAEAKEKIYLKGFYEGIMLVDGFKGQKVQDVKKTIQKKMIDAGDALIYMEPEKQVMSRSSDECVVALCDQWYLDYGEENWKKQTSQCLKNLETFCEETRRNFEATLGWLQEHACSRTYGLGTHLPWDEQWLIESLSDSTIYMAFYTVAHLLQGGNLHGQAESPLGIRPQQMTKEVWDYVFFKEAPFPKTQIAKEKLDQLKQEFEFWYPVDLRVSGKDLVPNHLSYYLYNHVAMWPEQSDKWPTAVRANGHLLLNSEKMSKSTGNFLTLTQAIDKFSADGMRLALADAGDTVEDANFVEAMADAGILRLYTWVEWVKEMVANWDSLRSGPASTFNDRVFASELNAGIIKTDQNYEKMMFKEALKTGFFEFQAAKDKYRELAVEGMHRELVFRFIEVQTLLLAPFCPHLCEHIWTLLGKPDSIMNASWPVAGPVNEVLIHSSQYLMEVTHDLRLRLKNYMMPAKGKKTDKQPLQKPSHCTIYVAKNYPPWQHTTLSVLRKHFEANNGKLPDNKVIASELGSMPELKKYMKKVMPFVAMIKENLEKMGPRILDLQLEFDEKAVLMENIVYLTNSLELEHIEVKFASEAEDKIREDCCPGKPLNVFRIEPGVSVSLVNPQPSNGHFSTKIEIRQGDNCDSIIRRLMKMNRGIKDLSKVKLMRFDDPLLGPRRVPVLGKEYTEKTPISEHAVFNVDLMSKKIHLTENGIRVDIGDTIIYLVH", "UniProt Q9P2G1": "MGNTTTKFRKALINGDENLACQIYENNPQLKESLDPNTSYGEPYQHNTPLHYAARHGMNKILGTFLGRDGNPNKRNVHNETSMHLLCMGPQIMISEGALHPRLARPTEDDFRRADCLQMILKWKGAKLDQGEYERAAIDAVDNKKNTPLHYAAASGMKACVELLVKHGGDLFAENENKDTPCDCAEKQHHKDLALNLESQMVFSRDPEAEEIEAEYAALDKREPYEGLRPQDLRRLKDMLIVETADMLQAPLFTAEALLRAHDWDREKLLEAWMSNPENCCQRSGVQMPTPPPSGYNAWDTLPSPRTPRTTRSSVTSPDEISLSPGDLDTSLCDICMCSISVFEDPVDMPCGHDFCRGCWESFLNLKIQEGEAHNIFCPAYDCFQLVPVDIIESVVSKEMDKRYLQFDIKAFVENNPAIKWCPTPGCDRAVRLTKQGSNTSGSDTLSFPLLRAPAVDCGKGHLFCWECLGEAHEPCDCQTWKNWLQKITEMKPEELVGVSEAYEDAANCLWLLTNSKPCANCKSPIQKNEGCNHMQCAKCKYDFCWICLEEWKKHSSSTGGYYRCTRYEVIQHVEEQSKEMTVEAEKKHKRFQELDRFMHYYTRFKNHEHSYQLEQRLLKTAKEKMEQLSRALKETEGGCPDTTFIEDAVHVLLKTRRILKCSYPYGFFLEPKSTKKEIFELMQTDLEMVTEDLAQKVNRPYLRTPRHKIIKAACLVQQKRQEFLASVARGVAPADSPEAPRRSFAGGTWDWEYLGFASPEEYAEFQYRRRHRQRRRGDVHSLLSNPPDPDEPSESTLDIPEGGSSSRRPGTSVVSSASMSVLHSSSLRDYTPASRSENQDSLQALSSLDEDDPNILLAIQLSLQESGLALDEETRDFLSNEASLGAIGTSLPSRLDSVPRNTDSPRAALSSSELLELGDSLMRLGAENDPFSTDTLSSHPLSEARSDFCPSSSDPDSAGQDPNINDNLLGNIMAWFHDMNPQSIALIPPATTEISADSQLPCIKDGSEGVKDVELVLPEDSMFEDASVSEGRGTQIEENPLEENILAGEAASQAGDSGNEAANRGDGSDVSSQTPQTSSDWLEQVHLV", "UniProt Q9UBB6": "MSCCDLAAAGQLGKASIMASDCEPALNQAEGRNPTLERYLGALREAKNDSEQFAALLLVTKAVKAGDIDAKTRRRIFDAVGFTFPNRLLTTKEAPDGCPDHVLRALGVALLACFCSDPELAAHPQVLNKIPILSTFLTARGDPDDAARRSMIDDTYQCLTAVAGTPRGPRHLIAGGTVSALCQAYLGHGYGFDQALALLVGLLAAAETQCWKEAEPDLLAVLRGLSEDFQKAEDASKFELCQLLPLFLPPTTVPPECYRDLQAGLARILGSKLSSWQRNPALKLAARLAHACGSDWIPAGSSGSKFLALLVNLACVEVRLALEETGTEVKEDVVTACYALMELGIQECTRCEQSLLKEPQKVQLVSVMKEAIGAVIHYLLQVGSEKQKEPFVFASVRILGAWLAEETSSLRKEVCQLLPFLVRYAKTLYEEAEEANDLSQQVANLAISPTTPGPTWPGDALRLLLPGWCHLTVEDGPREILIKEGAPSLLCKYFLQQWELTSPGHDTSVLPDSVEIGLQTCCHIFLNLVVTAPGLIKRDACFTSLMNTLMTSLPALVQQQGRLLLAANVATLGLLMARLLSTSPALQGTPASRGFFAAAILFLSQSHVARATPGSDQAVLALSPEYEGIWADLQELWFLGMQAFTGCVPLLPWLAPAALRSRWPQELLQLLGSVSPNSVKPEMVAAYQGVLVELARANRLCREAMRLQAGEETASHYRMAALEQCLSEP", "UniProt Q9NZW5": "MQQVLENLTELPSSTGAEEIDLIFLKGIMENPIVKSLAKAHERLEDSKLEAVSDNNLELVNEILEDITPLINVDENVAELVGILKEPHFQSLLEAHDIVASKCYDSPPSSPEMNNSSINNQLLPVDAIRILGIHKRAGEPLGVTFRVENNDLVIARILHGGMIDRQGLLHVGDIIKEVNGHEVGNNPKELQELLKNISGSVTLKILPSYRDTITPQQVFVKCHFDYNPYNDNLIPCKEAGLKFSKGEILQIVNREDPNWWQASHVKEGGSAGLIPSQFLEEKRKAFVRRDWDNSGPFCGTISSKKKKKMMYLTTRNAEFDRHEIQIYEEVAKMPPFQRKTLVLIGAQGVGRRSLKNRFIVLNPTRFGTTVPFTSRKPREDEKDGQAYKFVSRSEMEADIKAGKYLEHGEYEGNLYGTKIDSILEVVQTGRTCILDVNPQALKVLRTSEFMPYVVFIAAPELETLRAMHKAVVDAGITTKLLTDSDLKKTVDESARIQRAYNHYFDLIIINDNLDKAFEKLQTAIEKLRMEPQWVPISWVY"}, "source": "the supplement of paper PMC11006884", "note": "The entries are a selection whose mix differs from that of the whole data set."}
{"compound": "COC(=O)C#Cc1ccccc1 [methyl 3-phenylpropiolate]", "test": "log2 ratio of iodoacetamide-alkyne labeling of the cysteine site, DMSO over compound (competition); higher = stronger covalent engagement of the cysteine by the compound, active = 1 or more", "settings": "500 µM; treatment time 1 h; system: HEK293T cell lysate", "procedure,_shortened": "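After 1 h at ambient temperature with vehicle or electrophile (500 µM), HEK293T lysate (2 mg/mL) was labelled for 1 h with iodoacetamide alkyne and clicked to sCIP-TMT reagents. Pooled samples were trypsin-digested overnight at 37 °C, streptavidin-enriched, acid-eluted and analysed by Orbitrap Eclipse LC-MS/MS with FAIMS, then quantified in FragPipe over three replicates with duplicate channels. A cysteine's log2 competition ratio is its mean control-channel over mean compound-channel reporter intensity. Cysteines quantified in only one replicate were not included.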"}
{"target": "TES C196 (UniProt Q9UGI8)", "log2 ratio of iodoacetamide-alkyne labeling": "inactive: 0.308"}
{"target": "MRPL16 C167 (UniProt Q9NX20)", "log2 ratio of iodoacetamide-alkyne labeling": "inactive: -0.0869"}
{"target": "TBC1D13 C387 (UniProt Q9NVG8)", "log2 ratio of iodoacetamide-alkyne labeling": "inactive: 0.302"}
{"target": "DDX18 C329 (UniProt Q9NVP1)", "log2 ratio of iodoacetamide-alkyne labeling": "inactive: 0.256"}
{"target": "UniProt Q9NUQ3_C127", "log2 ratio of iodoacetamide-alkyne labeling": "inactive: 0.926"}
{"target": "FAM120A C892 (UniProt Q9NZB2)", "log2 ratio of iodoacetamide-alkyne labeling": "active: 1.45"}
{"target": "TMOD3 C231 (UniProt Q9NYL9)", "log2 ratio of iodoacetamide-alkyne labeling": "inactive: 0.0905"}
{"target": "ATXN10 C354 (UniProt Q9UBB4)", "log2 ratio of iodoacetamide-alkyne labeling": "active: 1.32"}
{"target": "LARS C527 (UniProt Q9P2J5)", "log2 ratio of iodoacetamide-alkyne labeling": "inactive: -0.28"}
{"target": "TMOD3 C150 (UniProt Q9NYL9)", "log2 ratio of iodoacetamide-alkyne labeling": "inactive: 0.855"}
{"target": "ANKIB1 C662 (UniProt Q9P2G1)", "log2 ratio of iodoacetamide-alkyne labeling": "inactive: 0.119"}
{"target": "SEC63 C295 (UniProt Q9UGP8)", "log2 ratio of iodoacetamide-alkyne labeling": "inactive: 0.629"}
{"target": "NCDN C22 (UniProt Q9UBB6)", "log2 ratio of iodoacetamide-alkyne labeling": "inactive: 0.523"}
{"target": "KBTBD4 C455 (UniProt Q9NVX7)", "log2 ratio of iodoacetamide-alkyne labeling": "inactive: 0.248"}
{"target": "LARS C522 (UniProt Q9P2J5)", "log2 ratio of iodoacetamide-alkyne labeling": "inactive: -0.28"}
{"target": "MPP6 C103 (UniProt Q9NZW5)", "log2 ratio of iodoacetamide-alkyne labeling": "inactive: 0.0103"}
